The values that follow come from the supplement of paper PMC10849652.

Chains of the proteins cited; added tags and fusions are not shown. Lines headed by an entry give the natural chain unless they say otherwise; changes in a name come on top.
UniProt Q9Y600: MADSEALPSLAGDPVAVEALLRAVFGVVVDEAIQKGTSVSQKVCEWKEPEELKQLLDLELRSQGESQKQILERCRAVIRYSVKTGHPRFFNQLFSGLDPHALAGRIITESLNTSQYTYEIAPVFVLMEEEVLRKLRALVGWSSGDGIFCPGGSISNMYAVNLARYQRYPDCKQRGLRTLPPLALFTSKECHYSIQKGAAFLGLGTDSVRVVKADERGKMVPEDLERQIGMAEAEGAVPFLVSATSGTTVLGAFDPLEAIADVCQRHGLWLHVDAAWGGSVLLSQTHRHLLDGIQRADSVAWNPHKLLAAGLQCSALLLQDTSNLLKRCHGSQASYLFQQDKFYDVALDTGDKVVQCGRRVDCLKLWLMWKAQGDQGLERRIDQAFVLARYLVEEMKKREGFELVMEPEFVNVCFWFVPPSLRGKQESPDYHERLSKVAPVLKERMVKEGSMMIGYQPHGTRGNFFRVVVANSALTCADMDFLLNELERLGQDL
UniProt O60931: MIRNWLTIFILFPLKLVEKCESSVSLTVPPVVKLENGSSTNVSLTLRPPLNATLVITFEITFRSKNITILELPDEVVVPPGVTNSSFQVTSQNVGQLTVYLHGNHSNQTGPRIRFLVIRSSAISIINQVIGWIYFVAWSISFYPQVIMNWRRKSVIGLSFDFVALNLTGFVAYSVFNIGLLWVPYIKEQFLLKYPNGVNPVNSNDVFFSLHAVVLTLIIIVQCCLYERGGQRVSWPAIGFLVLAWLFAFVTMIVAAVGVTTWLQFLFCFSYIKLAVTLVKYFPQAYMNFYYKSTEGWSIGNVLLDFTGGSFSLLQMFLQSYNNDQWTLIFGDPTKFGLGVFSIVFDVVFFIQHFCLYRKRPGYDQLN
UniProt Q13948: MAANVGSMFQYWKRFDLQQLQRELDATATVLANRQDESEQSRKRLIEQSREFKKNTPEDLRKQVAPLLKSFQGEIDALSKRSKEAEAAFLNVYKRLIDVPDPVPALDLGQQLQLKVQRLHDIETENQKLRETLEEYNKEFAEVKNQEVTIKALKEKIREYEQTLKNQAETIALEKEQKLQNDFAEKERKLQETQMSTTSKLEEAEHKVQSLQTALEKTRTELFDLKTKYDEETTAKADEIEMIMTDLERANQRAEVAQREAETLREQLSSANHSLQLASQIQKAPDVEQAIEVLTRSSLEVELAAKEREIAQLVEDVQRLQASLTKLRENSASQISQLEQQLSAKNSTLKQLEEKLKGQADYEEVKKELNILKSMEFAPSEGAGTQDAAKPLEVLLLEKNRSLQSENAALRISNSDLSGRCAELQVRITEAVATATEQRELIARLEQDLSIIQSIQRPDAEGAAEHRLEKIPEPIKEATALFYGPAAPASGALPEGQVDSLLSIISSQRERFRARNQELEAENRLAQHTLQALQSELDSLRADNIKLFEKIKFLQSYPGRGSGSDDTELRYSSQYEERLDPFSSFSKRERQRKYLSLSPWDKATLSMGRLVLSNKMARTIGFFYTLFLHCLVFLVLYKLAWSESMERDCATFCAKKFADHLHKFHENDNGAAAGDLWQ
UniProt Q9Y6M4: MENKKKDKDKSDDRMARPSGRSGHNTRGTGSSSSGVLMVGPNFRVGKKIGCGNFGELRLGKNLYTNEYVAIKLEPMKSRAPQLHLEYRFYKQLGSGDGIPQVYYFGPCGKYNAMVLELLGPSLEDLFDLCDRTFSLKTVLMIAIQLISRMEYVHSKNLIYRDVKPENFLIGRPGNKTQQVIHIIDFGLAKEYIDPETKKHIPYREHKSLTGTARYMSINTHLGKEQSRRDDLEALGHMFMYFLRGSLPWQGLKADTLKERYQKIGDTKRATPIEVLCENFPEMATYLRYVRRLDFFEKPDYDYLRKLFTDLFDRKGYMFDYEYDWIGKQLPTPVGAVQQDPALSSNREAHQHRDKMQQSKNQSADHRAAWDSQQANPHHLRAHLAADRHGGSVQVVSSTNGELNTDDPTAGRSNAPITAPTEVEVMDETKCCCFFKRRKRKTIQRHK
UniProt Q86T23: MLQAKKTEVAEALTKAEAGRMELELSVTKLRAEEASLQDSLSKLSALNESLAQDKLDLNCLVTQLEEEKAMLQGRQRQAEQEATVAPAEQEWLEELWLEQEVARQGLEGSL
UniProt Q9UBT7: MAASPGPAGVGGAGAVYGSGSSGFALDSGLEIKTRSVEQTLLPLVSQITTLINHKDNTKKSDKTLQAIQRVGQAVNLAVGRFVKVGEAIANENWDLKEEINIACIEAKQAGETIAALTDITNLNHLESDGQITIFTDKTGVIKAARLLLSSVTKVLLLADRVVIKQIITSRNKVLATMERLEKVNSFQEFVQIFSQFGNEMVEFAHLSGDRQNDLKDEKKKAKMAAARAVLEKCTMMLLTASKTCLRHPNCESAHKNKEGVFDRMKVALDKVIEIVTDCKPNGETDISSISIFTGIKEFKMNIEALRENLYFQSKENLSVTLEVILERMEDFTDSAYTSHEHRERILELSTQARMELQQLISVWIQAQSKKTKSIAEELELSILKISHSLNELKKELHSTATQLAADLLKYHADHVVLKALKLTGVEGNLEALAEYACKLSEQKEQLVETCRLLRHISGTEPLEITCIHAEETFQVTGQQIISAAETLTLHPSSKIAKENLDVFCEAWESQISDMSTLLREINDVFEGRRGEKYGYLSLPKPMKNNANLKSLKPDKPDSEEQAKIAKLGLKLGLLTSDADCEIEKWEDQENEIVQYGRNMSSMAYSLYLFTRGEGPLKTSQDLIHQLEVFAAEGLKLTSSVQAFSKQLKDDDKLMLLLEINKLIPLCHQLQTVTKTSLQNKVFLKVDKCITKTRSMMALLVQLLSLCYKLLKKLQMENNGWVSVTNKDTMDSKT
UniProt Q16619: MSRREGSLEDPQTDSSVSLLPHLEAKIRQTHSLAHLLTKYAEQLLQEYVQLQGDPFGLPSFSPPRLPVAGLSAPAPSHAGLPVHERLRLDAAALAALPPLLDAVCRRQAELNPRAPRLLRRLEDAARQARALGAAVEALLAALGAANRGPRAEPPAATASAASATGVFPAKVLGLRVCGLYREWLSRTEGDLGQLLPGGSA
UniProt Q9H175: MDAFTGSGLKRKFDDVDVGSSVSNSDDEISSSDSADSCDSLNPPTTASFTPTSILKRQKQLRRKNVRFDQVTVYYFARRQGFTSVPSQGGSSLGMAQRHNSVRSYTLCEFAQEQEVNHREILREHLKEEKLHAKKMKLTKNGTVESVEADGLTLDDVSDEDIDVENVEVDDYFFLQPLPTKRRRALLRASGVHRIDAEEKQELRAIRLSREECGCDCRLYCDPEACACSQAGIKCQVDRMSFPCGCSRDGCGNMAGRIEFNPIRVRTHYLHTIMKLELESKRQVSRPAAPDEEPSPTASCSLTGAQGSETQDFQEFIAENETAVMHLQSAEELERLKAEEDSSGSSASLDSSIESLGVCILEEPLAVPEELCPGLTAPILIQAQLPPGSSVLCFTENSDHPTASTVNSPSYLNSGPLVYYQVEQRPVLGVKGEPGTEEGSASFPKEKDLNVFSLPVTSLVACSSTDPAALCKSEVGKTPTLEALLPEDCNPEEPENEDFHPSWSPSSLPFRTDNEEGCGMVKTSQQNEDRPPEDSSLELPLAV
UniProt P08311: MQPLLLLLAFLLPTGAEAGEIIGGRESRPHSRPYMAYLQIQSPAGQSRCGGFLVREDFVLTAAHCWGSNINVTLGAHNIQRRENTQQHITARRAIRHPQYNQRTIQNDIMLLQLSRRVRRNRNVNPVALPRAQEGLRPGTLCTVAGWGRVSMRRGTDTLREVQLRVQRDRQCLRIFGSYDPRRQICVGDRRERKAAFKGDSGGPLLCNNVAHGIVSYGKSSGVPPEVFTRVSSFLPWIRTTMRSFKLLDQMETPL
UniProt P54108: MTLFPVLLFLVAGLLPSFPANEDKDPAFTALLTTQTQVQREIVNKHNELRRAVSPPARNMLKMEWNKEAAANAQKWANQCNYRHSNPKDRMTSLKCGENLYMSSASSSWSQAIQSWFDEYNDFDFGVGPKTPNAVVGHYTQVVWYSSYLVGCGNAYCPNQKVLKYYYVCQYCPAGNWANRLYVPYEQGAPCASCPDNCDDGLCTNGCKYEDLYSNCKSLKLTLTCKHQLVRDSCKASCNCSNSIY
UniProt P01037: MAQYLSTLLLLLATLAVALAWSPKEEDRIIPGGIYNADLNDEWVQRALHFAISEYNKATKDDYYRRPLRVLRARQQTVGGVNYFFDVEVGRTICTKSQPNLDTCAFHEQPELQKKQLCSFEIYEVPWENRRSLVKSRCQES
UniProt Q9UBX1: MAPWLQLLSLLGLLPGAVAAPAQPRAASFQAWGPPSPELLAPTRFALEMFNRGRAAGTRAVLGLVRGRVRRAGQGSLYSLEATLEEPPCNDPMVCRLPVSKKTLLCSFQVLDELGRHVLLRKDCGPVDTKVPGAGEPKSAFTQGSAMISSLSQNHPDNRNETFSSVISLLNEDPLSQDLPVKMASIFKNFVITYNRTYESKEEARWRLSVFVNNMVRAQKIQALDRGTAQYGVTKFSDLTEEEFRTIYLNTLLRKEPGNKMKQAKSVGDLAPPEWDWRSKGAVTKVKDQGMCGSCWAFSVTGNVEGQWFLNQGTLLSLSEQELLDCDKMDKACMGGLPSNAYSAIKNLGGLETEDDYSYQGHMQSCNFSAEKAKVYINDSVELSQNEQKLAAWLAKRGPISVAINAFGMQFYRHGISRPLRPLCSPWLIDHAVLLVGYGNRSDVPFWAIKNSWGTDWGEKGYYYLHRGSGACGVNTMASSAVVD
UniProt Q9UKG9: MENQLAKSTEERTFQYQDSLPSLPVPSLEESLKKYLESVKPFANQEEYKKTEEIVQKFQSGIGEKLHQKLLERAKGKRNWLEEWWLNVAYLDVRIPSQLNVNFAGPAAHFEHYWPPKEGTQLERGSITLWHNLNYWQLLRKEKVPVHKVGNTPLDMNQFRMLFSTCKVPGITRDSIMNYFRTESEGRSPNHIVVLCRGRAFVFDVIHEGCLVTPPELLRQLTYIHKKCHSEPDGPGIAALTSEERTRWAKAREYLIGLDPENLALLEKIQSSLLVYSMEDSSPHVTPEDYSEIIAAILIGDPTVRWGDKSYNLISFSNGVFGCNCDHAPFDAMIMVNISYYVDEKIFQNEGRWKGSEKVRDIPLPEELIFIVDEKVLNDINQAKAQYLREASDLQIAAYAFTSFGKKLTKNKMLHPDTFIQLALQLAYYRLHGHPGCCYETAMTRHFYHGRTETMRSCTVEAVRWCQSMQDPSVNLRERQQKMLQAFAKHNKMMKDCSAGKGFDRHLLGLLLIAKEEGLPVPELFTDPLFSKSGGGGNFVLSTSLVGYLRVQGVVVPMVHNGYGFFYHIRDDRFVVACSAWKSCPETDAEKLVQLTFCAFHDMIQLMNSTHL
UniProt Q9NSA3: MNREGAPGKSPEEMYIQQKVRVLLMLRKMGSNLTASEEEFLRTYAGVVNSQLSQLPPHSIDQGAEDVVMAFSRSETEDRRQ
UniProt Q16526: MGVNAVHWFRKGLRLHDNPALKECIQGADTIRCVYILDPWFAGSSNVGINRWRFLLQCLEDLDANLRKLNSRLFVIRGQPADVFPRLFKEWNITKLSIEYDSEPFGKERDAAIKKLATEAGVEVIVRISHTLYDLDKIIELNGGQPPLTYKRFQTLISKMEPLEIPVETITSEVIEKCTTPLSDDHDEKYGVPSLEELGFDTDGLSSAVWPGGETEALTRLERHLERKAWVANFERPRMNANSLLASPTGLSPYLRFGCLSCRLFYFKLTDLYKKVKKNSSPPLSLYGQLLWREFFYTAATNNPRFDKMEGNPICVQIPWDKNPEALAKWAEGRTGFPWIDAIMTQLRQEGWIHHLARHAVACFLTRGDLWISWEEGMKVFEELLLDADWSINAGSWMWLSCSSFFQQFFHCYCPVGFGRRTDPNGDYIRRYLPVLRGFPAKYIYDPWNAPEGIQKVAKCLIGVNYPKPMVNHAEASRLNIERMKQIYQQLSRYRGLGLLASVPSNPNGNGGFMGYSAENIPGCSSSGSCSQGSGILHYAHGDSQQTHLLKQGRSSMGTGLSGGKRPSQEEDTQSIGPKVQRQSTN
UniProt Q49AN0: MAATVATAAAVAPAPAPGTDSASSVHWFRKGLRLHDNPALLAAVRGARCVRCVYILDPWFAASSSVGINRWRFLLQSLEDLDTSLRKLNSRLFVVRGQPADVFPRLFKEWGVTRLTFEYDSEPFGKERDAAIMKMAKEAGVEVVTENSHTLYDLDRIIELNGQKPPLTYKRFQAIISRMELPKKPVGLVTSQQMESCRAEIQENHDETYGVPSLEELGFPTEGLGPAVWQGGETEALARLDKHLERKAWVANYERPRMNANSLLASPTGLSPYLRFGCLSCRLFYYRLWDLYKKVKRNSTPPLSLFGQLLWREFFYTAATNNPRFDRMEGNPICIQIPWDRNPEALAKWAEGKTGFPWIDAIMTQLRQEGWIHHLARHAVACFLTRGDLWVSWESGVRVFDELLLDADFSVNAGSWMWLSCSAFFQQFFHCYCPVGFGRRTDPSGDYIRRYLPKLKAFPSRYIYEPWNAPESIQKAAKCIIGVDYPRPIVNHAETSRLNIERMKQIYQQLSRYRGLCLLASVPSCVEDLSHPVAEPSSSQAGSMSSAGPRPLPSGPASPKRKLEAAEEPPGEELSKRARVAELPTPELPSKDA

This is one part of the list.

Compound in one assay: C=CC(=O)N1CCC[C@@H](n2nc(-c3ccc(Oc4ccccc4)cc3)c3c(N)ncnc32)C1 [ibrutinib]
Briefly: log2 fold change, soluble protein after heating vs DMSO (PISA); higher = thermal stabilisation; K562 lysate, 10 uM; active = over 0.2 and 3.5 SD of the protein, either way, in both replicates (recomputed). A digest of the protocol: (§1)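 Following dounce homogenisation of K562 pellets in PBS pH 7.4 with 1 mM MgCl2, crude extract at 1 mg/mL protein was incubated for 30 min with 10 μM compound. Aliquots were then heated for 3 min over 48°C-58°C and pooled, NP-40 was added to 0.5% at 4°C, and soluble protein was recovered as the supernatant at 21,000xg for 90 min. Channel-sum-equalised TMTpro 16plex LC-MS/MS quantified this protein. Each value, from duplicates, is a log-two fold change in thermal stability relative to solvent controls.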
Turning to CSAD isoform 3 (UniProt Q9Y600), the log2 fold change was inactive: -0.224.

For CTNS isoform 2 (UniProt O60931), the log2 fold change is inactive: 0.016.

As to CSRP2 (UniProt Q16527), the log2 fold change is inactive: 0.054.

For CTCFL isoform 7 (UniProt Q8NI51), the log2 fold change was inactive: 0.097.

Compound in the next assay: CC(=O)c1cnc2ccc(-c3cc(Cl)c(O)c(Cl)c3)nc2c1N[C@H]1CC[C@H](CN(C)C)CC1
Described as above. The procedure, abridged: as §1
Take CYFIP1, A0A0G2JRV9: the log2 fold change was inactive: 0.051.

As to CUX1 isoform 2 (UniProt Q13948), the log2 fold change is inactive: 0.07.

For the target CSNK1G3 isoform 4 (UniProt Q9Y6M4), the log2 fold change is inactive: 0.235.

Turning to CROCCP2 (UniProt Q86T23), the log2 fold change is inactive: -0.138.

Turning to CTNNAL1 (UniProt Q9UBT7), the log2 fold change is inactive: -0.023.

Regarding CTRB2 (UniProt Q6GPI1), the log2 fold change was inactive: 0.01.

As to CSNK2A1, A0A2R8Y4D6, the log2 fold change is inactive: 0.172.

Consider CTF1 (UniProt Q16619), for which the log2 fold change is inactive: 0.111.

CSGALNACT2 (UniProt Q8N6G5): the log2 fold change is inactive: -0.091.

Consider CRYL1 (UniProt Q9Y2S2), for which the log2 fold change was inactive: 0.085.

Compound in the next assay: CC(C)(C)Cn1c(N)nc2ccc(-c3[nH]c(C(C)(C)C)nc3-c3ccc(F)cc3)nc21 [ralimetinib]
The assay is described as above. The procedure, abridged: as §1
Consider CUX1 isoform 2 (UniProt Q13948), for which the log2 fold change was inactive: -0.069.

For the target CSAD isoform 3 (UniProt Q9Y600), the log2 fold change is inactive: -0.019.

Take CSRNP2 (UniProt Q9H175): the log2 fold change was inactive: -0.066.

Turning to CTSG (UniProt P08311), the log2 fold change is inactive: -0.135.

Take CTNS isoform 2 (UniProt O60931): the log2 fold change was inactive: 0.051.

As to CRISP3 isoform 3 (UniProt P54108), the log2 fold change is inactive: -0.047.

For CST1 (UniProt P01037), the log2 fold change was inactive: -0.124.

As to CTDSP1 (UniProt Q9GZU7), the log2 fold change is inactive: 0.02.

Turning to CRTC2 (UniProt H0YDQ8), the log2 fold change is inactive: -0.056.

With CTF1 (UniProt Q16619), the log2 fold change is inactive: -0.099.

Regarding CSNK1A1 isoform 3 (UniProt P48729), the log2 fold change was inactive: 0.13.

CTSF (UniProt Q9UBX1): the log2 fold change is inactive: 0.386.

Compound in another assay: CC(C)(O)CC(=O)NCCn1ccc2ncnc(Nc3ccc(Oc4cccc(C(F)(F)F)c4)c(Cl)c3)c21
Described as above. The procedure, abridged: as §1
For the target CUX1 isoform 2 (UniProt Q13948), the log2 fold change was inactive: 0.052.

Regarding CSAD isoform 3 (UniProt Q9Y600), the log2 fold change is inactive: -0.048.

In the case of CSRNP2 (UniProt Q9H175), the log2 fold change is inactive: 0.15.

On to CTSG (UniProt P08311), for which the log2 fold change is inactive: -0.117.

Take CTNS isoform 2 (UniProt O60931): the log2 fold change is inactive: 0.177.

For CRISP3 isoform 3 (UniProt P54108), the log2 fold change was inactive: 0.

Turning to CST1 (UniProt P01037), the log2 fold change was inactive: 0.725.

Consider CTDSP1 (UniProt Q9GZU7), for which the log2 fold change is inactive: -0.127.

With CRTC2 (UniProt H0YDQ8), the log2 fold change is inactive: -0.102.

Consider CTF1 (UniProt Q16619), for which the log2 fold change is inactive: 0.037.

In the case of CSNK1A1 isoform 3 (UniProt P48729), the log2 fold change is inactive: 0.253.

For the target CTSF (UniProt Q9UBX1), the log2 fold change was inactive: 0.008.

Compound in another assay: CC(C)C1=C2N=C(C=C(N2N=C1)NCC3=CC=CC=C3)NCCCCCCN
The assay is described as above. A digest of the protocol: as §1
Take CUX1 isoform 2 (UniProt Q13948): the log2 fold change was inactive: -0.16.

Take CSAD isoform 3 (UniProt Q9Y600): the log2 fold change was inactive: 0.041.

In the case of CSRNP2 (UniProt Q9H175), the log2 fold change is inactive: 0.127.

For the target CTSG (UniProt P08311), the log2 fold change was inactive: 0.043.

For CROCCP2 (UniProt Q86T23), the log2 fold change was inactive: -0.072.

As for CTNNAL1 (UniProt Q9UBT7), the log2 fold change is inactive: 0.001.

Turning to CYLD (UniProt Q9NQC7), the log2 fold change was inactive: 0.034.

As to CROT isoform 3 (UniProt Q9UKG9), the log2 fold change is inactive: -0.119.

Regarding CRISP3 isoform 3 (UniProt P54108), the log2 fold change is inactive: 0.151.

For CST1 (UniProt P01037), the log2 fold change was inactive: 0.589.

Take CTF1 (UniProt Q16619): the log2 fold change is inactive: 0.056.

For the target CTNNBIP1 (UniProt Q9NSA3), the log2 fold change is inactive: 0.022.

With CSGALNACT2 (UniProt Q8N6G5), the log2 fold change is inactive: -0.021.

Consider CTSS (UniProt P25774), for which the log2 fold change was inactive: 0.042.

In the case of CRYL1 (UniProt Q9Y2S2), the log2 fold change was inactive: -0.209.

On to CTSF (UniProt Q9UBX1), for which the log2 fold change is inactive: 0.076.

Compound in a further assay: CC1=C(C(CC(=O)N1)C2=CC=C(C=C2)C(F)(F)F)C(=O)NC3=C(C=C4C(=C3)C=NN4)F
The assay is described as above. A digest of the protocol:
as §1
For CYFIP1, A0A0G2JRV9, the log2 fold change was inactive: -0.172.

As for CRY1 (UniProt Q16526), the log2 fold change was inactive: -0.107.

Regarding CTSG (UniProt P08311), the log2 fold change is inactive: -0.006.

For CROCCP2 (UniProt Q86T23), the log2 fold change is inactive: 0.159.

As for CTNNAL1 (UniProt Q9UBT7), the log2 fold change was inactive: 0.024.

For CRY2 (UniProt Q49AN0), the log2 fold change is inactive: 0.013.

For CRNN (UniProt Q9UBG3), the log2 fold change is inactive: 2.

For CROT isoform 3 (UniProt Q9UKG9), the log2 fold change is inactive: -0.02.

Consider CTRB2 (UniProt Q6GPI1), for which the log2 fold change is inactive: -0.136.

On to CRISP3 isoform 3 (UniProt P54108), for which the log2 fold change is inactive: 1.34.

In the case of CST1 (UniProt P01037), the log2 fold change is inactive: 1.24.

With CTCFL isoform 7 (UniProt Q8NI51), the log2 fold change was inactive: -0.013.

CTBP1 (UniProt E7ESU7): the log2 fold change was inactive: 0.032.
